This is an account of results in publication PMC5384001 (Scientific Reports, 2017).

Numbering of substitutions follows the chain as printed. No constants are given. Whether binding was seen depends on the method and setting.

Assay in all cases: SEC; size-exclusion chromatography of the purified soluble LBDs, each run alone; column and buffer not told (Supplementary Fig. S8); both purified
Background: In gel filtration, larger molecules generally elute earlier.

The target of test [1] is wild-type GluN1 ligand-binding domain (GluN1-LBD), soluble S1-GT-S2 construct (UniProt P35439).
Test [2] addresses wild-type rat GluD2 ligand-binding domain (GluD2-LBD), soluble S1-GT-S2 construct (rat) (UniProt Q63226).
The target in test [3] is GluD2-LBD-(H)GluN1, GluD2 ligand-binding domain with the D1-D2 hinge region (HS1 and HS2) of GluN1 (rat) (UniProt Q63226).

“wild-type GluN1 ligand-binding domain (GluN1-LBD), soluble S1-GT-S2 construct (from UniProt P35439 394-544; P35439 663-800) (domain or fragment)”: the binding result in test [1] is “no binding”.

B1: wild-type rat GluD2 ligand-binding domain (GluD2-LBD), soluble S1-GT-S2 construct (domain or fragment, UniProt Q63226 440-551; Q63226 664-813)
chain: GGVVLRVVTVLEEPFVMVSENVLGKPKKYQGFSIDVLDALSNYLGFNYEIYVAPDHKYGSPQEDGTWNGLVGELVFKRADIGISALTITPDRENVVDFTTRYMDYSVGVLLRRGTSIQSLQDLSKQTDIPYGTVLDSAVYQHVRMKGLNPFERDSMYSQMWRMINRSNGSENNVLESQAGIQKVKYGNYAFVWDAAVLEYVAINDPDCSFYTVGNTVADRGYGIALQHGSPYRDVFSQRILELQQSGDMDILKHKWWPKNGQCDL
For B1, the binding result in test [2] is “no binding”.

B2: GluD2-LBD-(H)GluN1, GluD2 ligand-binding domain with the D1-D2 hinge region (HS1 and HS2) of GluN1 (domain or fragment, UniProt Q63226 440-551; Q63226 664-813)
chain: B1 chain with D104Y, Y105Q, S106G, V213T, N215E, T216L, V217F, A218F, D219R, R220S
With B2, the binding entry in test [3] was “no binding”.
